Laboratory results: article PMC2447831
No constants are given. Whether binding was seen depends on the method and setting. In cells and extracts the contact can be indirect. Some binding calls cover weakened binding; strength is not graded here. Where a sequence is shown, tags or fusion partners need not be part of it.

Sequences of proteins named here, by UniProt entry; tags and fusion partners are left off. A change or cut given only in a name is not applied to a line headed by its entry. Residues count along the entry.
UniProt P46531: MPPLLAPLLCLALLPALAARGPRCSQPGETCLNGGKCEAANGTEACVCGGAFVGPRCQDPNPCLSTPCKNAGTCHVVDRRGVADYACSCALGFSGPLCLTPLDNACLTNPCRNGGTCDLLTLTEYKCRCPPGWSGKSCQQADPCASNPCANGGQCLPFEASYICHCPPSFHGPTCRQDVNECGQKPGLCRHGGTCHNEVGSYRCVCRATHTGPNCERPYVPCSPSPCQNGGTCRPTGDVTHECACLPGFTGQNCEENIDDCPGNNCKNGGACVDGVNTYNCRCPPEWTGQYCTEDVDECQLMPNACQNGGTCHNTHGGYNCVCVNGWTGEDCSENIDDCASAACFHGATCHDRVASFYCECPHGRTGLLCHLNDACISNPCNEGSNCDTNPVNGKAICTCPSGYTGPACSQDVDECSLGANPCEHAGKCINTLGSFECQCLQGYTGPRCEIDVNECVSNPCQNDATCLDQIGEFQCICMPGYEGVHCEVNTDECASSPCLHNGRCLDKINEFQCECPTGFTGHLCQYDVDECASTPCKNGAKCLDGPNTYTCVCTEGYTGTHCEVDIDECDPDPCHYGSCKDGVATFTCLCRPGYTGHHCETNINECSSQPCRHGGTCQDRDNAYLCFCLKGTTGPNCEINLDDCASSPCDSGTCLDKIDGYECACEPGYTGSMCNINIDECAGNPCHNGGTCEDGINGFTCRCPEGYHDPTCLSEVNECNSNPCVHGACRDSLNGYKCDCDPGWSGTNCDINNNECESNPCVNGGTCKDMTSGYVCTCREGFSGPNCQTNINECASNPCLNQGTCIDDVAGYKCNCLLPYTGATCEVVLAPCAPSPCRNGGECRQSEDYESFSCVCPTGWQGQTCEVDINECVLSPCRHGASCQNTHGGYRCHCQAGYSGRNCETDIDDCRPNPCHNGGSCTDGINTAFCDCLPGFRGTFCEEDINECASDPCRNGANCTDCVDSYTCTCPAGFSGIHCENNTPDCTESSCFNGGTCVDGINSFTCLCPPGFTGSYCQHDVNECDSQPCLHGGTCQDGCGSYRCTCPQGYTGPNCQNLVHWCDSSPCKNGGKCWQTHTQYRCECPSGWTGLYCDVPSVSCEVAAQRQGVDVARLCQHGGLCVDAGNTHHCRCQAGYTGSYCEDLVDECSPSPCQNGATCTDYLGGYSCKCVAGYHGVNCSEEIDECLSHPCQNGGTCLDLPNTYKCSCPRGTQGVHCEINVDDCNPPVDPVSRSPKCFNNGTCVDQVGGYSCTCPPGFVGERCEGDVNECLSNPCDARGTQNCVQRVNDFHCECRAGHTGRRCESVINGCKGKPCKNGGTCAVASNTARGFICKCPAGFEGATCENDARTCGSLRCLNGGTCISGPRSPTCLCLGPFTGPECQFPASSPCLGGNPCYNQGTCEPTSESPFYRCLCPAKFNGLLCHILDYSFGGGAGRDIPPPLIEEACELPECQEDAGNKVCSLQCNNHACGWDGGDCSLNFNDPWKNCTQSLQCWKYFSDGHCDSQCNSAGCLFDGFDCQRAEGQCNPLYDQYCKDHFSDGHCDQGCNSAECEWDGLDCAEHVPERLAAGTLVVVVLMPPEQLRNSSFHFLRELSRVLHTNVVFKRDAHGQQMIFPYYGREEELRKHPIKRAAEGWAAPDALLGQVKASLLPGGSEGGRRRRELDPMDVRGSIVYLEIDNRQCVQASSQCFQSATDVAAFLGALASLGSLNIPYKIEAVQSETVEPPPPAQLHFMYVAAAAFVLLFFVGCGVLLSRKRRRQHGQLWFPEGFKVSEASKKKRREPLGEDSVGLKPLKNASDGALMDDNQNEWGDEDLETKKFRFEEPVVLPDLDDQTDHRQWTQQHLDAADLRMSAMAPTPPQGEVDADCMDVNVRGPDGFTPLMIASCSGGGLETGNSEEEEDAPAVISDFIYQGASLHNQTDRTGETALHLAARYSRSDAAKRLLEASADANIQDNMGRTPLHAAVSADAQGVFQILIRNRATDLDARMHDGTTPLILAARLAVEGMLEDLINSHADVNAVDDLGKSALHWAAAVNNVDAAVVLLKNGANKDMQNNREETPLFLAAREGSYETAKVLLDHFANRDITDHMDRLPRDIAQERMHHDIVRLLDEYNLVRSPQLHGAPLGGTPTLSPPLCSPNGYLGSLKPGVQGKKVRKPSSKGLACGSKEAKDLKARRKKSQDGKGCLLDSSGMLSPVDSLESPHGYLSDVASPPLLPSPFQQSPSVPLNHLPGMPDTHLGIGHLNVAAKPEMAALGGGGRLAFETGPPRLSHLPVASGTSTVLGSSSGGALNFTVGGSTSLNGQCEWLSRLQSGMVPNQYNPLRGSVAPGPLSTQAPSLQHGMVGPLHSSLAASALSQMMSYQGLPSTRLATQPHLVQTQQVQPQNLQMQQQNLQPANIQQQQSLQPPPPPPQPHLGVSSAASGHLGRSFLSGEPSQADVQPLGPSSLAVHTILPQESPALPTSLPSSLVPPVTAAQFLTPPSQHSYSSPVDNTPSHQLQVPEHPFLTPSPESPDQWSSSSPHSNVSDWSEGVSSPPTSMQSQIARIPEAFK
full-length Notch-1 (human (endogenous in ReNcell CX)): residues 19-2555 of P46531
Notch-1 intracellular domain (NICD) (human (endogenous in ReNcell CX)): residues 1754-2555 of P46531

Experiments:
[1] = molecular target: full-length Notch-1 (human (endogenous in ReNcell CX)) (UniProt P46531); assay: co-IP; HNPCs transfected with Dab-1-FLAG for 24 hours; lysed in RIPA buffer (150 mM NaCl, 1% IGEPAL CA-630, 0.5% sodium deoxycholate, 0.1% SDS, 50 mM Tris pH 8.0) with 1% Triton-X; 700 ug protein with anti-Flag, anti-Notch-1 or anti-NICD for 3 hours at 4 C, protein G- or A-Sepharose 1 hr at 4 C, washed 5x with lysis buffer; western blot
[2] = molecular target: Notch-1 intracellular domain (NICD) (human (endogenous in ReNcell CX)) (UniProt P46531); assay: as above

binding [1]: binds | binding [2]: binds
B1: Dab-1 with a flag tag added to its C terminus (protein, UniProt O75553-6 1-555)
chain: MSTETELQVAVKTSAKKDSRKKGQDRSEATLIKRFKGEGVRYKAKLIGIDEVSAARGDKLCQDSMMKLKGVVAGARSKGEHKQKIFLTISFGGIKIFDEKTGALQHHHAVHEISYIAKDITDHRAFGYVCGKEGNHRFVAIKTAQAAEPVILDLRDLFQLIYELKQREELEKKAQKDKQCEQAVYQTILEEDVEDPVYQYIVFEAGHEPIRDPETEENIYQVPTSQKKEGVYDVPKSQPVSAVTQLELFGDMSTPPDITSPPTPATPGDAFIPSSSQTLPASADVFSSVPFGTAAVPSGYVAMGAVLPSFWGQQPLVQQQMVMGAQPPVAQVMPGAQPIAWGQPGLFPATQQPWPTVAGQFPPAAFMPTQTVMPLPAAMFQGPLTPLATVPGTSDSTRSSPQTDKPRQKMGKETFKDFQMAQPPPVPSRKPDQPSLTCTSEAFSSYFNKVGVAQDTDDCDDFDISQLNLTPVTSTTPSTNSPPTPAPRQSSPSKSSASHASDPTTDDIFEEGFESPSKSEEQEAPDGSQASSNSDPFGEPSGEPSGDNISPQAGS
